Reference: paper PMC10060208
No constants are given. Whether binding was seen depends on the method and setting. For some assays here: Binding seen in cells or lysates may run through a third protein. Some results given as binding are weak or reduced against the parent protein; the word gives no strength. For some assays here: Where a sequence is shown, tags or fusion partners need not be part of it.

Chains of the proteins cited; added tags and fusions are not shown.
UniProt Q16875: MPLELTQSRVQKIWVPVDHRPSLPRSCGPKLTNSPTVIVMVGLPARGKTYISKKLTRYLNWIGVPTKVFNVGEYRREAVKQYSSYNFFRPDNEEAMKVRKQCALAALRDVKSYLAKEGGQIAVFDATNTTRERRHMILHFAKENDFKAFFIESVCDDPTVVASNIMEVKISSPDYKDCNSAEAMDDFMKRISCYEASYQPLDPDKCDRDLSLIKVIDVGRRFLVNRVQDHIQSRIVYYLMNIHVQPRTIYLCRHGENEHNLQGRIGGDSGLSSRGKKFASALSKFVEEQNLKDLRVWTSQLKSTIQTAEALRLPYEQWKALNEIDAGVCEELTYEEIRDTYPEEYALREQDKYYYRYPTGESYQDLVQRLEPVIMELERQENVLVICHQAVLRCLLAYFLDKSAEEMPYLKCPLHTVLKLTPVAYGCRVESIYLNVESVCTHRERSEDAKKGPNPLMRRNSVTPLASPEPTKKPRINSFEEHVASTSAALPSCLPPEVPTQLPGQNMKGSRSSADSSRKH

Assays:
GST-tagged Aurora-A = target: T1, GST-tagged Aurora-A (UniProt O14965); test: pull-down; His-tagged PFKFB3 mixed with GST or GST-tagged Aurora-A in binding buffer at 4 °C overnight, glutathione-sepharose beads 2 h, washed five times with PBS; western blotting; both purified
T1 sequence: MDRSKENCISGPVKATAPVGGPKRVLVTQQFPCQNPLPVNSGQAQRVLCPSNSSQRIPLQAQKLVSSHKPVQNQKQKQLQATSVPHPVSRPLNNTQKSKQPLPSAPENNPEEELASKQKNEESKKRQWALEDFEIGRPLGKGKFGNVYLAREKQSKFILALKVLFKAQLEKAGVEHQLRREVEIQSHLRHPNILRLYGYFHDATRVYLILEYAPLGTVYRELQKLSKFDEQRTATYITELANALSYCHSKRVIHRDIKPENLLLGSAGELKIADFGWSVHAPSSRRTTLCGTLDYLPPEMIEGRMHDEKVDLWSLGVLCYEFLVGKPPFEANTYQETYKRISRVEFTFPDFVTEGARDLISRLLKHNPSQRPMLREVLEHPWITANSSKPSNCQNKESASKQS

[1] = target: T2, Aurora-A (human (endogenous in TPC-1)) (UniProt O14965); test: co-IP; TPC-1 cells lysed with IP lysis buffer; lysates incubated with anti-Aurora-A antibody or PFKFB3 antibody overnight at 4 °C, protein A + G agarose beads 2 h at 4 °C, washed 3 times; western blotting
T2 sequence: T1 sequence

Row | binding (GST-tagged Aurora-A) | binding [1] | Substance
1 | binds |  | His-tagged PFKFB3 (from UniProt Q16875 1-520) (enzyme)
2 |  | binds | PFKFB3 (6-phosphofructo-2-kinase / fructose-2,6-bisphosphatase) (from UniProt Q16875 1-520)
